In US20030180823A1, “Individualization of therapy with antihistamines” (Xanthus Life Sciences, Inc., priority 2001, published 2003):

System: 1X-Ab
Assay: Competitive antigen ELISA, cross-reactivity of 1X-Ab
Type: binding, rabbit
Settings: for [1X] × 10^6 determined by ELISA: fixed 1X concentration of 3 × 10^−6 M; for apparent increase of 1X concentration: fixed 1X 3×10^−6 M

## Cn1c(=O)[nH]c2[nH]c(=O)[nH]c2c1=O [1-Methyluric acid]
1U:1X ratio 0.50
  [1X] × 10^6 determined by ELISA: 2.75 × 10^6 (M)
1U:1X ratio 1.00
  [1X] × 10^6 determined by ELISA: 3.25 × 10^6 (M)
1U:1X ratio 1.50
  [1X] × 10^6 determined by ELISA: 3.25 × 10^6 (M)
1U:1X ratio 2.00
  [1X] × 10^6 determined by ELISA: 3.60 × 10^6 (M)
1U:1X ratio 2.50
  [1X] × 10^6 determined by ELISA: 3.65 × 10^6 (M)
1U:1X ratio 3.00
  [1X] × 10^6 determined by ELISA: 3.95 × 10^6 (M)
1U:1X ratio 4.00
  [1X] × 10^6 determined by ELISA: 4.20 × 10^6 (M)
1U:1X ratio 5.00
  [1X] × 10^6 determined by ELISA: 4.30 × 10^6 (M)
1U:1X ratio 6.00
  [1X] × 10^6 determined by ELISA: 4.50 × 10^6 (M)
1U:1X ratio 8.00
  [1X] × 10^6 determined by ELISA: 4.30 × 10^6 (M)
1U:1X ratio of 2.5
  apparent increase of 1X concentration: 22%
1U:1X ratio of 3.0
  apparent increase of 1X concentration: 32%
